PubChem BioAssay AID1259254, NCATS | 2017
The deposit covers about 59,000 reagents; below is a part drawn at random. In the full data, about 1,550 (2.6%) got an active call. 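G2 share is only a proxy for re-replication; each gene was hit by three separate siRNAs, and active genes were retested.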 Raw values are not corrected between plates. The numbers tell different reagents against one gene apart. Reagent sequences are not shown. Not given: the amount of reagent.

- Aim: 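Finding genes that stop cells copying their DNA twice in one cycle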 (primary screen)
- Cells: human HCT116 colorectal cancer cells
- Knock-down reagent: single siRNA against human genes
- Time to read-out: 3 days
- Detection: 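Imaged Hoechst DNA stain sorts each cell into a cycle phase by DNA amount; per plate, G2 fraction set to 0% for non-targeting and 100% for GMNN siRNA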
- Scale: G2 robust z-score and G2 cells, % of GMNN control: higher = more G2 cells, more excess DNA replication; raw share of cells in G2: higher = larger share of cells with G2 DNA content
- Hit rule: 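Active siRNAs have a G2 robust z of 5 or more median absolute deviations over the median, which in these data means about 38% or higher of GMNN control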

gene | reagent no. | G2 robust z-score | G2 cells, % of GMNN control | raw share of cells in G2 (%) | activity call
SLC5A10 | 1 | 1.67 | 14.7 | 11.3 | inactive
SLC5A10 | 2 | -1.21 | -5.56 | 3.09 | inactive
SLC5A10 | 3 | 6.17 | 46.4 | 22 | active
LOC644173 (retired record) | 1 | -0.093 | 2.31 | 4.52 | inactive
LOC644173 (retired record) | 2 | -0.289 | 0.935 | 3.61 | inactive
LOC644173 (retired record) | 3 | 1.06 | 10.4 | 6.19 | inactive
DCTN2 (dynactin subunit 2) | 1 | 0.294 | 5.03 | 7.88 | inactive
DCTN2 (dynactin subunit 2) | 2 | -0.614 | -1.35 | 3.4 | inactive
DCTN2 (dynactin subunit 2) | 3 | 3.19 | 25.4 | 16.5 | inactive
RSPO1 (R-spondin 1) | 1 | 0.472 | 6.29 | 5.93 | inactive
RSPO1 (R-spondin 1) | 2 | 0.907 | 9.35 | 6.66 | inactive
RSPO1 (R-spondin 1) | 3 | -0.211 | 1.49 | 3.72 | inactive
MTO1 (mitochondrial tRNA translation optimization 1) | 1 | 3.19 | 25.4 | 17.7 | inactive
MTO1 (mitochondrial tRNA translation optimization 1) | 2 | 1.23 | 11.6 | 8.04 | inactive
MTO1 (mitochondrial tRNA translation optimization 1) | 3 | -0.205 | 1.53 | 4.49 | inactive
SPEN-AS1 (SPEN antisense RNA 1) | 1 | -1.13 | -5 | 1.35 | inactive
SPEN-AS1 (SPEN antisense RNA 1) | 2 | -0.307 | 0.807 | 4.08 | inactive
SPEN-AS1 (SPEN antisense RNA 1) | 3 | -0.455 | -0.236 | 3.14 | inactive
SPEN-AS1 (SPEN antisense RNA 1) | 4 | -0.609 | -1.31 | 2.63 | inactive
SPEN-AS1 (SPEN antisense RNA 1) | 5 | -0.449 | -0.194 | 4.02 | inactive
SPEN-AS1 (SPEN antisense RNA 1) | 6 | 0.669 | 7.67 | 5.81 | inactive
GCNT1 (glucosaminyl (N-acetyl) transferase 1) | 1 | 1.23 | 11.6 | 9.46 | inactive
GCNT1 (glucosaminyl (N-acetyl) transferase 1) | 2 | 2.69 | 21.9 | 13.6 | inactive
GCNT1 (glucosaminyl (N-acetyl) transferase 1) | 3 | 0.696 | 7.86 | 6.46 | inactive
NOL6 (nucleolar protein 6) | 1 | 2.02 | 17.2 | 12.8 | inactive
NOL6 (nucleolar protein 6) | 2 | 6.21 | 46.7 | 20.9 | active
NOL6 (nucleolar protein 6) | 3 | 0.269 | 4.86 | 5.99 | inactive
TP53I11 (tumor protein p53 inducible protein 11) | 1 | 5.19 | 39.5 | 23.2 | active
TP53I11 (tumor protein p53 inducible protein 11) | 2 | 1.44 | 13.1 | 9.42 | inactive
TP53I11 (tumor protein p53 inducible protein 11) | 3 | -0.114 | 2.16 | 4.19 | inactive
ANGPT1 (angiopoietin 1) | 1 | 0.469 | 6.27 | 6.85 | inactive
ANGPT1 (angiopoietin 1) | 2 | -0.745 | -2.28 | 4.26 | inactive
ANGPT1 (angiopoietin 1) | 3 | 3.7 | 29 | 14.8 | inactive

A run of entries from the list above:
gene | reagent no. | G2 robust z-score | G2 cells, % of GMNN control | raw share of cells in G2 (%) | activity call
RSPO1 (R-spondin 1) | 3 | -0.211 | 1.49 | 3.72 | inactive
MTO1 (mitochondrial tRNA translation optimization 1) | 1 | 3.19 | 25.4 | 17.7 | inactive
MTO1 (mitochondrial tRNA translation optimization 1) | 2 | 1.23 | 11.6 | 8.04 | inactive
MTO1 (mitochondrial tRNA translation optimization 1) | 3 | -0.205 | 1.53 | 4.49 | inactive
SPEN-AS1 (SPEN antisense RNA 1) | 1 | -1.13 | -5 | 1.35 | inactive
SPEN-AS1 (SPEN antisense RNA 1) | 2 | -0.307 | 0.807 | 4.08 | inactive

Additional records follow:
gene | reagent no. | G2 robust z-score | G2 cells, % of GMNN control | raw share of cells in G2 (%) | activity call
LMO2 (LIM domain only 2) | 1 | 0.698 | 7.88 | 8.54 | inactive
LMO2 (LIM domain only 2) | 2 | -0.991 | -4 | 1.87 | inactive
LMO2 (LIM domain only 2) | 3 | -0.759 | -2.37 | 2.25 | inactive
SBNO2 (strawberry notch homolog 2) | 1 | -0.62 | -1.39 | 4.44 | inactive
SBNO2 (strawberry notch homolog 2) | 2 | 1.27 | 11.9 | 9.06 | inactive
SBNO2 (strawberry notch homolog 2) | 3 | -0.357 | 0.456 | 3.34 | inactive
SARS1 (seryl-tRNA synthetase 1) | 1 | 0.0738 | 3.49 | 6.01 | inactive
SARS1 (seryl-tRNA synthetase 1) | 2 | -0.391 | 0.213 | 4.22 | inactive
SARS1 (seryl-tRNA synthetase 1) | 3 | -1.09 | -4.69 | 3.36 | inactive
PAPOLA (poly(A) polymerase alpha) | 1 | -1.26 | -5.93 | 1.92 | inactive
PAPOLA (poly(A) polymerase alpha) | 2 | 0.993 | 9.95 | 10.4 | inactive
PAPOLA (poly(A) polymerase alpha) | 3 | -0.0681 | 2.49 | 6.78 | inactive
TSLP (thymic stromal lymphopoietin) | 1 | -0.00204 | 2.95 | 5.34 | inactive
TSLP (thymic stromal lymphopoietin) | 2 | 0.666 | 7.65 | 5.4 | inactive
TSLP (thymic stromal lymphopoietin) | 3 | 0.118 | 3.8 | 4.13 | inactive
ABCC11 (ATP binding cassette subfamily C member 11) | 1 | -0.488 | -0.467 | 5.45 | inactive
ABCC11 (ATP binding cassette subfamily C member 11) | 2 | -0.521 | -0.698 | 4.67 | inactive
ABCC11 (ATP binding cassette subfamily C member 11) | 3 | 0.496 | 6.46 | 6.92 | inactive
PTPRJ (protein tyrosine phosphatase receptor type J) | 1 | -1 | -4.08 | 3.47 | inactive
PTPRJ (protein tyrosine phosphatase receptor type J) | 2 | -0.908 | -3.42 | 3.27 | inactive
PTPRJ (protein tyrosine phosphatase receptor type J) | 3 | 2.37 | 19.6 | 9.4 | inactive
SRSF9 (serine and arginine rich splicing factor 9) | 1 | -0.214 | 1.46 | 5.2 | inactive
SRSF9 (serine and arginine rich splicing factor 9) | 2 | 2.2 | 18.4 | 11.7 | inactive
SRSF9 (serine and arginine rich splicing factor 9) | 3 | 4.42 | 34.1 | 16.9 | inactive
KCNC2 (potassium voltage-gated channel subfamily C member 2) | 1 | 2.46 | 20.3 | 12.7 | inactive
KCNC2 (potassium voltage-gated channel subfamily C member 2) | 2 | -0.0368 | 2.71 | 5.7 | inactive
KCNC2 (potassium voltage-gated channel subfamily C member 2) | 3 | -0.331 | 0.641 | 4.63 | inactive
LSAMP (limbic system associated membrane protein) | 1 | 1.84 | 15.9 | 11.8 | inactive
LSAMP (limbic system associated membrane protein) | 2 | -1.47 | -7.35 | 2.52 | inactive
LSAMP (limbic system associated membrane protein) | 3 | 0.354 | 5.46 | 5 | inactive
ZMYND15 (zinc finger MYND-type containing 15) | 1 | -0.998 | -4.06 | 1.18 | inactive
ZMYND15 (zinc finger MYND-type containing 15) | 2 | 2.01 | 17.1 | 9.81 | inactive
ZMYND15 (zinc finger MYND-type containing 15) | 3 | -0.512 | -0.635 | 3.27 | inactive
PPP1R14C (protein phosphatase 1 regulatory inhibitor subunit 14C) | 1 | 1.3 | 12.1 | 8.73 | inactive
PPP1R14C (protein phosphatase 1 regulatory inhibitor subunit 14C) | 2 | -1.11 | -4.87 | 2.83 | inactive
PPP1R14C (protein phosphatase 1 regulatory inhibitor subunit 14C) | 3 | 0.664 | 7.64 | 5.8 | inactive
PRDM9 (PR/SET domain 9) | 1 | 0.288 | 5 | 5.2 | inactive
PRDM9 (PR/SET domain 9) | 2 | 0.733 | 8.13 | 5.66 | inactive
PRDM9 (PR/SET domain 9) | 3 | 3.11 | 24.9 | 17.1 | inactive
SUZ12 (SUZ12 polycomb repressive complex 2 subunit) | 1 | 1.66 | 14.6 | 12.2 | inactive
SUZ12 (SUZ12 polycomb repressive complex 2 subunit) | 2 | 1.63 | 14.4 | 8.99 | inactive
SUZ12 (SUZ12 polycomb repressive complex 2 subunit) | 3 | -0.353 | 0.481 | 4.03 | inactive
MRPS18A (mitochondrial ribosomal protein S18A) | 1 | 0.956 | 9.7 | 8.25 | inactive
MRPS18A (mitochondrial ribosomal protein S18A) | 2 | 6.27 | 47.1 | 23.7 | active
MRPS18A (mitochondrial ribosomal protein S18A) | 3 | 3.55 | 27.9 | 12.1 | inactive
ASRGL1 (asparaginase and isoaspartyl peptidase 1) | 1 | -1.07 | -4.53 | 3.69 | inactive
ASRGL1 (asparaginase and isoaspartyl peptidase 1) | 2 | 2.11 | 17.8 | 10.3 | inactive
ASRGL1 (asparaginase and isoaspartyl peptidase 1) | 3 | 3.06 | 24.5 | 13.4 | inactive
TPM1 (tropomyosin 1) | 1 | 2.22 | 18.6 | 13.5 | inactive
TPM1 (tropomyosin 1) | 2 | -0.0439 | 2.66 | 5.35 | inactive
TPM1 (tropomyosin 1) | 3 | 1.7 | 14.9 | 9.81 | inactive
TFAP2C (transcription factor AP-2 gamma) | 1 | -0.903 | -3.38 | 2.12 | inactive
TFAP2C (transcription factor AP-2 gamma) | 2 | 0.116 | 3.79 | 6.62 | inactive
TFAP2C (transcription factor AP-2 gamma) | 3 | -0.655 | -1.64 | 2.51 | inactive
